Source: article PMC4776112
These are yes or no findings as the source states them, for the method shown. Binding seen in cells or lysates may run through a third protein. Some binding calls cover weakened binding; strength is not graded here.

The chains behind the UniProt entries cited, without tags or fusion partners.
UniProt P63085: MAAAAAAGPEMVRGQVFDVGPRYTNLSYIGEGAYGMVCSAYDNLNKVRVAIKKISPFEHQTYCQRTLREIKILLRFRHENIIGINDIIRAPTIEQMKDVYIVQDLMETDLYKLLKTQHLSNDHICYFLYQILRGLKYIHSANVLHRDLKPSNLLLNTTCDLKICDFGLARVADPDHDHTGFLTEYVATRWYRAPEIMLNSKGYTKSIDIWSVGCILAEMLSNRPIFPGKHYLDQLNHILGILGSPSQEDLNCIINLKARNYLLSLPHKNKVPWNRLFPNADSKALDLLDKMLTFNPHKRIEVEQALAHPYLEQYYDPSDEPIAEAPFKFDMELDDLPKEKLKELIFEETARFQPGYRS
UniProt P62965: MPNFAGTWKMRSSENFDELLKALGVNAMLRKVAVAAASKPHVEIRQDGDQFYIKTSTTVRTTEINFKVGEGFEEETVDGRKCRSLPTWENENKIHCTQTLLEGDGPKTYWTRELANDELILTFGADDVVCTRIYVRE

Target: GST-ERK2 (recombinant, 14-198, Upstate) (UniProt P63085)
Experiment: co-IP; Semi in vitro kinase assay: anti-flag precipitate of flag-Crabp1 from Cos-1 cells (treated with 100 nM atRA, compound 3, compound 4 or control for 30 min) incubated with 0.4 ug pure GST-ERK2 in 40 ul kinase buffer (20 mM MOPS pH 7.2, ATP, MgCl2) at 30 °C for 30 min; association seen by western blot (Fig. 2B, lower panel); only the target purified

flag-Crabp1 (cellular retinoic acid binding protein 1) (from UniProt P62965 1-137)
binding: binds
